Source: article PMC4749557

Amino acid sequences for entries named in this document (tags omitted).
UniProt O09106: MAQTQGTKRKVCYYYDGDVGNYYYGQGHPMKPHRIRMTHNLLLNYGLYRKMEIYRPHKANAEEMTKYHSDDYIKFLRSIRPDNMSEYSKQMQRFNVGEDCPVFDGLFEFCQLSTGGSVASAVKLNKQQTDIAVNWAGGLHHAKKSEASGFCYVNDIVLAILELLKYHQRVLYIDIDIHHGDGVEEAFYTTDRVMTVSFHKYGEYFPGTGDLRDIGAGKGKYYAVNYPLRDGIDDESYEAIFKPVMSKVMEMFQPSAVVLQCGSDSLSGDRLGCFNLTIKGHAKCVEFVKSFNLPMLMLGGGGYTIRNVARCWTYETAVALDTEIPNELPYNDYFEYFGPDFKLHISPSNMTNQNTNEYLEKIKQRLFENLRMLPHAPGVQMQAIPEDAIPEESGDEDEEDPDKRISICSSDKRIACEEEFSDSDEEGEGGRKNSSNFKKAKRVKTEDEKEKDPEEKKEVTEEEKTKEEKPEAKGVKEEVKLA
UniProt P70288: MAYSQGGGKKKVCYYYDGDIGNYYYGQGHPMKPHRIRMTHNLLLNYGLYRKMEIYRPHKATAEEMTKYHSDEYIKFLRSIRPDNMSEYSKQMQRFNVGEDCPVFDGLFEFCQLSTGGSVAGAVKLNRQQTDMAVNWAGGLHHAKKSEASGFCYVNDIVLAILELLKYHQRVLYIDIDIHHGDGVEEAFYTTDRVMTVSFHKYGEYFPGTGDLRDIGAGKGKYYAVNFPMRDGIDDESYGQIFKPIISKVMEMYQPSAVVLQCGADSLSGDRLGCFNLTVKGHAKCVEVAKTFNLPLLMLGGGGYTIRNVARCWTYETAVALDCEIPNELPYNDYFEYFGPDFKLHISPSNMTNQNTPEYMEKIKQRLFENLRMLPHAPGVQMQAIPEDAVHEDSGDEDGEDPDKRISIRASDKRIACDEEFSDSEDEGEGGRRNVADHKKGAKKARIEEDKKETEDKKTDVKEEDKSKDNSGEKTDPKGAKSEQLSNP

Target: T1, FLAG–HA tagged Prdm14 (FH-Prdm14), stably expressed in mESCs (mouse) (UniProt E9Q3T6)
T1 sequence: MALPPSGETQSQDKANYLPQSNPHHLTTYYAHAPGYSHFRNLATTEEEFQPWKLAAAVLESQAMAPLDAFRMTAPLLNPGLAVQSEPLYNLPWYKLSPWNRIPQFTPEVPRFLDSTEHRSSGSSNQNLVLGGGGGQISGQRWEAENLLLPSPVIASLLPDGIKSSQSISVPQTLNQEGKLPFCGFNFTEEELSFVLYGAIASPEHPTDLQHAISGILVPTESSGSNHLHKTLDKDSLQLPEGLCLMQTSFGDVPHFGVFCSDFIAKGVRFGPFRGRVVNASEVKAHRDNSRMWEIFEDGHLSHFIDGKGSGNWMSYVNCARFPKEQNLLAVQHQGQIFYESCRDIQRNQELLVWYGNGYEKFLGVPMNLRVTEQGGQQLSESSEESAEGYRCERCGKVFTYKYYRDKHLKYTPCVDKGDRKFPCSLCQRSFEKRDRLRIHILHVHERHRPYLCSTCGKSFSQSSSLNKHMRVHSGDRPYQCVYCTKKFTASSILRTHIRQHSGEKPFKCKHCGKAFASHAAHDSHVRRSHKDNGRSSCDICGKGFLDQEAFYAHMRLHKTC
Test: affinity purification with mass spectrometry; two-step immunopurification (FLAG M2 beads with peptide elution, then HA antibody) from FH-Prdm14 mESC nuclear extracts, wt mESCs as control; SDS-PAGE, silver stain, mass spectrometry

Substance | binding
HDAC1, endogenous in mESCs (from UniProt O09106 1-482) (enzyme) | binds
HDAC2, endogenous in mESCs (from UniProt P70288 1-488) (enzyme) | binds

No constants are given. Whether binding was seen depends on the method and setting. In cells and extracts the contact can be indirect. A yes stands for co-enrichment or nearness to the bait. Other partners may have been found. Tags and fused reporters may be left off the sequences shown.
